The text below walks through data of paper PMC2681475.

Protein sequences, listed by entry. Tags and fused reporters are not part of them.
UniProt P04792: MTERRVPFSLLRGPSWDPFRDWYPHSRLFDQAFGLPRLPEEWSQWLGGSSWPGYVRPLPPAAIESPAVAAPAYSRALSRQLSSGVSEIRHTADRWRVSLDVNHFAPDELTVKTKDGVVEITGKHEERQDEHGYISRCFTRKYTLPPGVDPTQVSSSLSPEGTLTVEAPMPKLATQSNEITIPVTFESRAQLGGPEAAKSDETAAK

These are yes or no findings as the source states them, for the method shown. In cells and extracts the contact can be indirect. Some binding calls cover weakened binding; strength is not graded here.

Test [1] deals with Heat shock protein 27 (human (endogenous in Hep3B, MHCC97L, MHCC97H)) (UniProt P04792). Briefly: co-IP; immunoprecipitation with anti-HSP27 antibody from lysates (1 mg total protein) of Hep3B, MHCC97L and MHCC97H cells, 4°C overnight, Protein G-Sepharose; western blot; 20 mM Tris pH 7.5, 150 mM NaCl, 1% Triton X-100. In general terms: Immunoblotting shows a protein as a band on a membrane.

Test [2] addresses T1, IKKα (human (endogenous in Hep3B, MHCC97L, MHCC97H)) (UniProt O15111).
T1 sequence: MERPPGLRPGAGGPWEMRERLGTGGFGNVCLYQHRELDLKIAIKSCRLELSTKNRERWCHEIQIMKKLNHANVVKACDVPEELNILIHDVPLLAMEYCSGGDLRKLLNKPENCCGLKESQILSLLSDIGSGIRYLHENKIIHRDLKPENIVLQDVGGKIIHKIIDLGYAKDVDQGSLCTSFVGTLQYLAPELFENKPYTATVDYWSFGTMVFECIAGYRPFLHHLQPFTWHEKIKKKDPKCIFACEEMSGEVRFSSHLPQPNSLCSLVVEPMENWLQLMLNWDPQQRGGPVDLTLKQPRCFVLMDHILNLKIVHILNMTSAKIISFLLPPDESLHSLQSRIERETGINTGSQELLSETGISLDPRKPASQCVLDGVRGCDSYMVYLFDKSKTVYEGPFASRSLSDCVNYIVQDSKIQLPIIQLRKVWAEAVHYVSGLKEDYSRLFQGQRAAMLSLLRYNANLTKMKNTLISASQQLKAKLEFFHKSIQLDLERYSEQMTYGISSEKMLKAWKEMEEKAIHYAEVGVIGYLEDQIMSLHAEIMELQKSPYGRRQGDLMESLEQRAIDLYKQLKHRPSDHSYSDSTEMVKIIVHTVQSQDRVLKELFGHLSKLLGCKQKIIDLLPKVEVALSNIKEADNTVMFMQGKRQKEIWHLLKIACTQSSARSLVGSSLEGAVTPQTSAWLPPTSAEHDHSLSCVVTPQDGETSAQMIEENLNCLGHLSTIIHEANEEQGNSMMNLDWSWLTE
In words: co-IP; immunoprecipitation with anti-IKKα antibody from lysates of Hep3B, MHCC97L and MHCC97H cells (HSP27, phospho-HSP27 blots) and of HSP27 RNAi, MOCK and untreated MHCC97H cells (IKKβ blot), 4°C overnight, Protein G-Sepharose; western blot; 20 mM Tris pH 7.5, 150 mM NaCl, 1% Triton X-100.

Test [3] has as its target Heat shock protein 27 (human (endogenous in Hep3B, MHCC97L, MHCC97H)), P04792. In words: co-IP; immunoprecipitation with anti-HSP27 antibody from lysates (1 mg total protein) of Hep3B, MHCC97L and MHCC97H cells, 4°C overnight, Protein G-Sepharose; western blot; 20 mM Tris pH 7.5, 150 mM NaCl, 1% Triton X-100. Conditions: remark: other sources report otherwise.

B1: IKKβ (protein, UniProt O14920 1-756)
chain: MSWSPSLTTQTCGAWEMKERLGTGGFGNVIRWHNQETGEQIAIKQCRQELSPRNRERWCLEIQIMRRLTHPNVVAARDVPEGMQNLAPNDLPLLAMEYCQGGDLRKYLNQFENCCGLREGAILTLLSDIASALRYLHENRIIHRDLKPENIVLQQGEQRLIHKIIDLGYAKELDQGSLCTSFVGTLQYLAPELLEQQKYTVTVDYWSFGTLAFECITGFRPFLPNWQPVQWHSKVRQKSEVDIVVSEDLNGTVKFSSSLPYPNNLNSVLAERLEKWLQLMLMWHPRQRGTDPTYGPNGCFKALDDILNLKLVHILNMVTGTIHTYPVTEDESLQSLKARIQQDTGIPEEDQELLQEAGLALIPDKPATQCISDGKLNEGHTLDMDLVFLFDNSKITYETQISPRPQPESVSCILQEPKRNLAFFQLRKVWGQVWHSIQTLKEDCNRLQQGQRAAMMNLLRNNSCLSKMKNSMASMSQQLKAKLDFFKTSIQIDLEKYSEQTEFGITSDKLLLAWREMEQAVELCGRENEVKLLVERMMALQTDIVDLQRSPMGRKQGGTLDDLEEQARELYRRLREKPRDQRTEGDSQEMVRLLLQAIQSFEKKVRVIYTQLSKTVVCKQKALELLPKVEEVVSLMNEDEKTVVRLQEKRQKELWNLLKIACSKVRGPVSGSPDSMNASRLSQPGQLMSQPSTASNSLPEPAKKSEELVAEAHNLCTLLENAIQDTVREQDQSFTALDWSWLQTEEEEHSCLEQAS
Take B1: the binding entry in test [1] and in test [2] was “binds” throughout.

B2: IKKα, O15111 1-745 (protein)
chain: T1 sequence
As to B2, the binding result in test [3] is on record as “binds”.
